# In publication PMC7819943, “Rice protein-binding microarrays: a tool to detect cis-acting elements near promoter regions in rice”:
# Amino acid sequences for entries named in this document (tags omitted).
# UniProt Q0JBA9, entry or part of it: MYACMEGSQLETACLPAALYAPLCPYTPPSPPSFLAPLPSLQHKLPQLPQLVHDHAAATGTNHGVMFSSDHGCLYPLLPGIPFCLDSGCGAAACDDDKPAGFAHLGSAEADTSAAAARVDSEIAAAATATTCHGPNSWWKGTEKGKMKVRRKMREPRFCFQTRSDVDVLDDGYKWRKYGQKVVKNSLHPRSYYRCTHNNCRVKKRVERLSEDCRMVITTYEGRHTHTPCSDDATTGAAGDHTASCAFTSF
# The list shows a part of the results.
# Biological target: OsWRKY34 (Oryza sativa, UniProt Q0JBA9 1-250)
# Experiment: protein-binding microarray (RPBM); PBS, 2% BSA, 51.3 ng/ul salmon testes DNA, 50 uM zinc acetate, 200 nM TF, 25 C, 1 h; high values mean tight binding
# Conditions: protein: recombinant; tags: N-terminal polyhistidine and DsRed monomer fusion (pET32a); label: CyDye5-dUTP incorporated in the synthesized complementary strand; 3' TTTTT single-stranded linker to array surface; dsDNA, one strand shown
# In short: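 Transcription factors, each fused N-terminally to a polyhistidine tag and DsRed, were expressed in E. coli BL21-CodonPlus and purified on Ni–NTA. A custom Agilent array was made double-stranded by primer extension with Cy5-dUTP and blocked with 2% BSA. It was incubated with 200 nM protein in PBS, 2% BSA, salmon testes DNA and 50 µM zinc acetate at 25 °C for 1 h, then washed. The binding signal is per-feature fluorescence intensity (arbitrary units) read on an Axon 4000B scanner.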
row,Sequence,binding signal
1,AAGACCGCAAAAAAATTTTCCTTCCATCGCTCGCCGCATTCGGAGTCACCTAGTGCAG,9180 fluorescence intensity (a.u.)
2,GCCCCACAGCCATTCCAAGCACATATTCCCTGCACCCTGCCGGAGTCACCTAGTGCAG,9260 fluorescence intensity (a.u.)
3,GGTTGGCTCGCATCGGGATTTTACGCGTGTTATGTGTGAACGGAGTCACCTAGTGCAG,8600 fluorescence intensity (a.u.)
4,CCCTGTTTTCATCACTGACGTAGCTAGCAACTAGCTTCCACGGAGTCACCTAGTGCAG,12300 fluorescence intensity (a.u.)
5,CACTAATTTTGCCTTTGTGCCTTTTACTATTGCGCATCACCGGAGTCACCTAGTGCAG,10200 fluorescence intensity (a.u.)
6,ACGTCAGCAGTCCACGCCTCCACCACGGGTCCAAGCGTCCCGGAGTCACCTAGTGCAG,8090 fluorescence intensity (a.u.)
7,CATTCCATTAAATTCTGCAGGCACACTTCACCTGATGTTTCGGAGTCACCTAGTGCAG,9790 fluorescence intensity (a.u.)
8,CTGTGCCGCTCGCTCGTTCGCTCTGTGACTGTACGTACATCGGAGTCACCTAGTGCAG,10200 fluorescence intensity (a.u.)
9,GGTGACACACTCCAACTCCAACCACTCCCCATACAACCTACGGAGTCACCTAGTGCAG,8500 fluorescence intensity (a.u.)
10,TAGGTTGTAAGGATGTATAGATTGAATTTAGTTTTGCATGCGGAGTCACCTAGTGCAG,8880 fluorescence intensity (a.u.)
11,TGGTCTGCTCGTCGTCTTCGACTCTTCATCGCCACTCGCCCGGAGTCACCTAGTGCAG,9610 fluorescence intensity (a.u.)
12,CCCTCAATCCAACGGCCCACGCTGCACTCCTCACCACTCACGGAGTCACCTAGTGCAG,9390 fluorescence intensity (a.u.)
13,CCACTGGATCCATTTCAATTTTACCTAGCCATCGCTGCGGCGGAGTCACCTAGTGCAG,8640 fluorescence intensity (a.u.)
14,TCCTCCGCCCTATTCGATCCCCTCCTCACCCCGCCGTTCTCGGAGTCACCTAGTGCAG,8800 fluorescence intensity (a.u.)
15,TAGTTTCTTGTTTTCAGTTTTTTTTTCTTGTCATTTTTTTCGGAGTCACCTAGTGCAG,19500 fluorescence intensity (a.u.)
16,ATTTCCCACTGCGTGATCCTGTTGCCTTTTTTAGAGCTCTCGGAGTCACCTAGTGCAG,9070 fluorescence intensity (a.u.)
17,TGAGAAAAAGTCAACGACGTCATCTATTAAAAAACGGAGGCGGAGTCACCTAGTGCAG,11900 fluorescence intensity (a.u.)
18,TCGCGATTTCTATGTAAACTGTGCAATTAGTTTTTTTATCCGGAGTCACCTAGTGCAG,8390 fluorescence intensity (a.u.)
19,CTTGATGTCTCTGGCACTCTTGGCTCTGGCTGGTAGCTATCGGAGTCACCTAGTGCAG,9640 fluorescence intensity (a.u.)
20,ATTTTGGACCAGAGATTCGGTATGCTGTTTCTTATGCGATCGGAGTCACCTAGTGCAG,9540 fluorescence intensity (a.u.)
21,ACCCAATGACTTTAGGTGGCTGTGTTGTGTTCAGTGGATCCGGAGTCACCTAGTGCAG,9510 fluorescence intensity (a.u.)

row,Sequence,binding signal
1,AATTCTTATCTTTGTAACAGTGTTGTTTTTTTTTGGGTAACGGAGTCACCTAGTGCAG,8380 fluorescence intensity (a.u.)
2,TCCTAATAAGTACTTCATTCGTTTTATATTATAAGACTTTCGGAGTCACCTAGTGCAG,9710 fluorescence intensity (a.u.)
3,TGGCAAAGTATCGTCCATCACATACAGTACACAACGATCCCGGAGTCACCTAGTGCAG,8110 fluorescence intensity (a.u.)
4,GCCGCCTTTCGTTACCCACCAACCCAACCTCGTTCTACGGCGGAGTCACCTAGTGCAG,8980 fluorescence intensity (a.u.)
5,ACGGGTGCTTGTATTTACAGCTAATTATTTTTTCAGTGGCCGGAGTCACCTAGTGCAG,8410 fluorescence intensity (a.u.)
6,ACCTTCACTATTTTTTTTGATTTTTTTCTTTTTTTTTTAACGGAGTCACCTAGTGCAG,12200 fluorescence intensity (a.u.)
7,ACTTTGATTGGGCTGGGTTCATATGAGATTAGGGGAAAAACGGAGTCACCTAGTGCAG,13500 fluorescence intensity (a.u.)
8,ATTTTGCATGCCCGCTGTGTTCAAACTGACATATTGTCAACGGAGTCACCTAGTGCAG,10100 fluorescence intensity (a.u.)
9,GAGCAGCTTCGTCGTCGTCTTCGTTTCATCGCTTCTGCTCCGGAGTCACCTAGTGCAG,11000 fluorescence intensity (a.u.)
10,CGTTTCAAAATATTTAACACCGTTGACTTTTTAGTACGTGCGGAGTCACCTAGTGCAG,31100 fluorescence intensity (a.u.)
11,CCTTCACCTGGTAATCATTTCGATGCATTCATTTCCCTATCGGAGTCACCTAGTGCAG,8470 fluorescence intensity (a.u.)
12,TCACCTCCTCTCTTTCTATCTCTCTCTCTCCACCACCTTTCGGAGTCACCTAGTGCAG,8340 fluorescence intensity (a.u.)
13,GCTGGTATGCCTTGCATGCTCTCACGGTTACGTGCCGAGACGGAGTCACCTAGTGCAG,8570 fluorescence intensity (a.u.)
14,TAAGACGTTTTGACTTTTTTTTTTCCTATTTAAACCTTTTCGGAGTCACCTAGTGCAG,13500 fluorescence intensity (a.u.)
15,AGCATTTTCCGCCCCAAATCTCGTCCTTGCTGCCCCGACTCGGAGTCACCTAGTGCAG,8650 fluorescence intensity (a.u.)
16,GTCTAGAATGCATCACTTTGCTTTTGGCCAAGGTCATTTGCGGAGTCACCTAGTGCAG,8160 fluorescence intensity (a.u.)
17,CTTCTTCTTGTTGTTCTTGCTGTTCTTGTGGTTCTTGGCCCGGAGTCACCTAGTGCAG,11500 fluorescence intensity (a.u.)
18,CAAGTCAACACCAACCAAACCCTAATTGCTTAGAGGACAACGGAGTCACCTAGTGCAG,8420 fluorescence intensity (a.u.)
19,CTTCCCCATCTCCGCCGCCACCCCACCGTTTCTCTTCTTTCGGAGTCACCTAGTGCAG,9790 fluorescence intensity (a.u.)
20,GTCTCTCTTTTTTGTTATTTTATTTAAAACTAGCTATATCCGGAGTCACCTAGTGCAG,13300 fluorescence intensity (a.u.)
21,CTACTTTGCCTACCTAGGCTGCCGCACTATATATAAATACCGGAGTCACCTAGTGCAG,8700 fluorescence intensity (a.u.)

row,Sequence,binding signal
1,TTTTTAGGCATTTTTAGGTGTTCTCCCATTTTTAGGTGCGCGGAGTCACCTAGTGCAG,9210 fluorescence intensity (a.u.)
2,TCGTTCTACCAGTCAGCCCTAACAAACTTCCCGCCCACTCCGGAGTCACCTAGTGCAG,8330 fluorescence intensity (a.u.)
3,GCACTGGGCGTTCCTACTATTCCACTCGCTCTAGTTTGCCCGGAGTCACCTAGTGCAG,10500 fluorescence intensity (a.u.)
4,ATTACTTGTCGCTTTGACTTTTTGCTTAAAATGTTTGACCCGGAGTCACCTAGTGCAG,15800 fluorescence intensity (a.u.)
5,GCTGCGTTTCGTTTCTCGGTCTCGCGCGCGTGGTGTCACGCGGAGTCACCTAGTGCAG,9160 fluorescence intensity (a.u.)
6,GAGGACTGGGGAGGGCGGGGAGAGGGGAGGGCGTCGCGTGCGGAGTCACCTAGTGCAG,24500 fluorescence intensity (a.u.)
7,ATTCCTCGTTTTACGCGCGCACACTTTTTAAATTGCTAAACGGAGTCACCTAGTGCAG,10400 fluorescence intensity (a.u.)
8,CTCCCTTCCTTATCCGTCCCGTCTCCTCGCGCTGCTAGCACGGAGTCACCTAGTGCAG,9330 fluorescence intensity (a.u.)
9,TCTTCTTCTTCCTCGCATCCATAGCTACCGATCAGGGGCACGGAGTCACCTAGTGCAG,9570 fluorescence intensity (a.u.)
10,AAACCATCACACTAGTCGTATGATATGACTTTACCCTGCACGGAGTCACCTAGTGCAG,8410 fluorescence intensity (a.u.)
11,CTAGTGATGCTTTTTGTTGTTGTTCATTTTGAATATCTGTCGGAGTCACCTAGTGCAG,10900 fluorescence intensity (a.u.)
12,GCATAAACTTTCAATTTTCCCGTCACATCGTTCCAATTTCCGGAGTCACCTAGTGCAG,9070 fluorescence intensity (a.u.)
13,TAAATCTTCTGTTATAGCTGCTATCTTTCGCTGTTGCTGTCGGAGTCACCTAGTGCAG,8740 fluorescence intensity (a.u.)
14,ACCTGTCTCCCTGCTGCTGTTTCTACCATTACTGCATTTTCGGAGTCACCTAGTGCAG,14200 fluorescence intensity (a.u.)
15,CCGCCGCCGCCGCTCGCCTCCGCCTCCGCCTCCGTCCCCTCGGAGTCACCTAGTGCAG,8680 fluorescence intensity (a.u.)
16,CTGCTGCTGGTGCTTAATTTTGCTCGGGTTCGTGGGGTTGCGGAGTCACCTAGTGCAG,9970 fluorescence intensity (a.u.)
17,GGGAGGAGGAGGATCGGAGGAGGAGGGGTTTCACGCCATGCGGAGTCACCTAGTGCAG,11100 fluorescence intensity (a.u.)
18,CTAATAGCTCACATCGTTTCGCGTATCTTTCCAATCTTCTCGGAGTCACCTAGTGCAG,8790 fluorescence intensity (a.u.)
19,ATAAACGTGCATCCCAGCCTCTCTGTTATTATGGCTATTTCGGAGTCACCTAGTGCAG,8450 fluorescence intensity (a.u.)
20,ATCCACCCCGCGATCCGTTTTTGCTGTGCCCCACCGCCTCCGGAGTCACCTAGTGCAG,11400 fluorescence intensity (a.u.)
21,GGTTGCTGCTGCTGCTGCTGCGGCGCTGGGGTTAGGGTTTCGGAGTCACCTAGTGCAG,8790 fluorescence intensity (a.u.)

row,Sequence,binding signal
1,GTCTCGCGATTTTCATGTAAACTGTACAATTAGTTTTTGTCGGAGTCACCTAGTGCAG,9300 fluorescence intensity (a.u.)
2,GGTTGGTGGGTGTGGGCGTGTGGCAAAGCAGAGAGGCGGCCGGAGTCACCTAGTGCAG,8530 fluorescence intensity (a.u.)
3,ACAACTTGCCCAGTGTCCATAATATCGATCGCTTGTTCACCGGAGTCACCTAGTGCAG,10200 fluorescence intensity (a.u.)
4,AACCACCTGAATTTCGTCGAATTTTACCAATTCTGCTGAACGGAGTCACCTAGTGCAG,9120 fluorescence intensity (a.u.)
5,TCAAAACTTTTCTACACACACAAACTTTCAACTTTTCTATCGGAGTCACCTAGTGCAG,8170 fluorescence intensity (a.u.)
6,CAAATGGAGGCCCCTTTTAGATACGCTTCCTGTTACTTTCCGGAGTCACCTAGTGCAG,8710 fluorescence intensity (a.u.)
7,ACCTACGCATCGTCCAGACGCCCATACACGTATGCATACGCGGAGTCACCTAGTGCAG,9110 fluorescence intensity (a.u.)
8,ATCACCATGCCACATTTCTCACTCATTTCACACTCACACCCGGAGTCACCTAGTGCAG,12900 fluorescence intensity (a.u.)
9,CGTCGGAATGCTTCTTATCCATATATACCTTGTTCTCCAACGGAGTCACCTAGTGCAG,10300 fluorescence intensity (a.u.)
10,CGGTTCCTCAACACGCTCTTCACCATCGCGTGCCTGTACCCGGAGTCACCTAGTGCAG,9000 fluorescence intensity (a.u.)
11,GGGGTCACACAAGAGGGAGGGCAAATGTAGGTAAGATTGACGGAGTCACCTAGTGCAG,11400 fluorescence intensity (a.u.)
12,CGATCGCTTAGATTCCGCATCGTCCTTTTCACTATTTTTTCGGAGTCACCTAGTGCAG,11400 fluorescence intensity (a.u.)
13,GCTTGCACAGCACAACGCCCATCATCCTGGATCCCCGTCACGGAGTCACCTAGTGCAG,8390 fluorescence intensity (a.u.)
14,CAACCTCATTGGCTGCACCTCGTCCTCATCCGCCGCAATCCGGAGTCACCTAGTGCAG,10900 fluorescence intensity (a.u.)
15,CTTAAGTATATATATTTTTGTAGTGTCGTTTCACAAAACCCGGAGTCACCTAGTGCAG,8650 fluorescence intensity (a.u.)
16,GCTTGTTAGATCGCCTCGCTATGCTCCAATCTGCGCATCACGGAGTCACCTAGTGCAG,8580 fluorescence intensity (a.u.)
17,TCTTGTAATAGGATTCTTTGTTTGGTTTGCTTGTATTCTTCGGAGTCACCTAGTGCAG,10400 fluorescence intensity (a.u.)
18,GATTTTTTCGCATTGCCCACATTCTTATAGATGTTAATGACGGAGTCACCTAGTGCAG,10500 fluorescence intensity (a.u.)
19,AAGGTATTGGCTCTTACTACTTGGGTTCGAGATTTTCTAGCGGAGTCACCTAGTGCAG,9120 fluorescence intensity (a.u.)
20,CTTCTGCGTTCTACTTGATGGATCGGTTAGTCTCGTTAATCGGAGTCACCTAGTGCAG,8270 fluorescence intensity (a.u.)
21,ATTGATTTTGTTATTTTTACGCACAGACTCAAATACATTGCGGAGTCACCTAGTGCAG,8460 fluorescence intensity (a.u.)

# No new results follow: an excerpt of the list.
row,Sequence,binding signal
2,GGTTGGTGGGTGTGGGCGTGTGGCAAAGCAGAGAGGCGGCCGGAGTCACCTAGTGCAG,8530 fluorescence intensity (a.u.)
3,ACAACTTGCCCAGTGTCCATAATATCGATCGCTTGTTCACCGGAGTCACCTAGTGCAG,10200 fluorescence intensity (a.u.)
4,AACCACCTGAATTTCGTCGAATTTTACCAATTCTGCTGAACGGAGTCACCTAGTGCAG,9120 fluorescence intensity (a.u.)
5,TCAAAACTTTTCTACACACACAAACTTTCAACTTTTCTATCGGAGTCACCTAGTGCAG,8170 fluorescence intensity (a.u.)
6,CAAATGGAGGCCCCTTTTAGATACGCTTCCTGTTACTTTCCGGAGTCACCTAGTGCAG,8710 fluorescence intensity (a.u.)
7,ACCTACGCATCGTCCAGACGCCCATACACGTATGCATACGCGGAGTCACCTAGTGCAG,9110 fluorescence intensity (a.u.)
8,ATCACCATGCCACATTTCTCACTCATTTCACACTCACACCCGGAGTCACCTAGTGCAG,12900 fluorescence intensity (a.u.)
9,CGTCGGAATGCTTCTTATCCATATATACCTTGTTCTCCAACGGAGTCACCTAGTGCAG,10300 fluorescence intensity (a.u.)
10,CGGTTCCTCAACACGCTCTTCACCATCGCGTGCCTGTACCCGGAGTCACCTAGTGCAG,9000 fluorescence intensity (a.u.)
11,GGGGTCACACAAGAGGGAGGGCAAATGTAGGTAAGATTGACGGAGTCACCTAGTGCAG,11400 fluorescence intensity (a.u.)
12,CGATCGCTTAGATTCCGCATCGTCCTTTTCACTATTTTTTCGGAGTCACCTAGTGCAG,11400 fluorescence intensity (a.u.)
